From ChEMBL document CHEMBL3988442, “University of Dundee, Small-Polar-MMV Screening Library” (2021).

Chains of the proteins cited; added tags and fusions are not shown.
UniProt E9BF75, entry or part of it: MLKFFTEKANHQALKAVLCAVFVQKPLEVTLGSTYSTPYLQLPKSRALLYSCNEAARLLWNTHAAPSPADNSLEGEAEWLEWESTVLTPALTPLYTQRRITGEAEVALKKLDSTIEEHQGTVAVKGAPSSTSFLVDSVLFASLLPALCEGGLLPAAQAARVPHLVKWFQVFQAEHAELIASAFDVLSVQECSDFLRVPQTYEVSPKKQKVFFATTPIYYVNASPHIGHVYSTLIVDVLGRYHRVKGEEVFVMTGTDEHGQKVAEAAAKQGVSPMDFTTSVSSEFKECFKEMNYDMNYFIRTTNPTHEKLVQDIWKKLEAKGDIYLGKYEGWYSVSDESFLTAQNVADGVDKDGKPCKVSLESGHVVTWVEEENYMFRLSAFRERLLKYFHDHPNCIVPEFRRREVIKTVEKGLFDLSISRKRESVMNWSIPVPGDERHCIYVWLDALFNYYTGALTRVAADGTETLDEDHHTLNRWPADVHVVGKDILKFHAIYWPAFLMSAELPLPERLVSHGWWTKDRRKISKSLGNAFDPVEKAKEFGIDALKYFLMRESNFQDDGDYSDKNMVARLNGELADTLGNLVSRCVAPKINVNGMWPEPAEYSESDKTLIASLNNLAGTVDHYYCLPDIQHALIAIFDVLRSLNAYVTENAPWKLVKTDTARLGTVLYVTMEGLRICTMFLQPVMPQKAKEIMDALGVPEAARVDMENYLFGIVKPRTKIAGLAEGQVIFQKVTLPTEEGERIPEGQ

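Primary screen of methionyl-tRNA synthetase; the read-out is not stated. Target: Methionyl-tRNA synthetase (putative), Leishmania donovani (UniProt E9BF75). The test concentration is not given. The values are filed as inhibition. Size under these conditions: about 68,000 compounds, about 24 of them at 50% or above in at least one test.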

All values are in %. The record does not define 0% and 100%; most values in the screen are far below 50% and negative numbers occur (in some assays of this library far below -100). The compounds are a random part of those screened.

structure,Inhibition
O=C(NCc1ccccc1)NCC(O)c1cccc(F)c1 (centres undefined),19.37%
O=C(CCCc1nc2ccccc2[nH]1)N1CCCC1c1ccncc1 (centres undefined),3.377%
Cc1cccc(NS(=O)(=O)c2ccc(C#N)nc2)c1C#N,7.258%
Cc1nc(-c2ccc(S(=O)(=O)N3CCSCC3)cc2)co1,8.591%
CCOc1cncc(N2CCCC2c2nnc3n2CCCCC3)n1 (centres undefined),10.03%
COCCOCC(=O)N(C)Cc1ccc(OCc2cccs2)cc1,5.797%
Cn1cc(C2CC(=O)NC23CCN(Cc2nccs2)CC3)cn1 (centres undefined),10.68%
COc1ccc(C2=CCN(C(=O)C3CCN(C)C(=O)C3)CC2)cc1 (centres undefined),9.449%
COC(=O)C(C)(C)NC(=O)C1CC(=O)N(CC2CC2)C1 (centres undefined),19.63%
N[C@@H](Cc1c[nH]cn1)C(=O)N1CCC(Oc2ccc(F)cc2)CC1,20.87%
O=C(c1cnn2c1OCCC2)N1CCN(C(=O)C2CCCO2)CC1 (centres undefined),10.7%
COc1ccc(C(=O)Nc2c(C(=O)N(C)C)nn(C)c2C)cc1,25.38%
CC(=O)NC(=O)C1(CCCc2ccncc2)CCN1 (centres undefined),11.46%
COc1cccc(N2CCC(CNC(=O)NCc3ccco3)C2)c1 (centres undefined),18.53%
O=C(C1CCC1)N1CCN(Cc2ccsc2)[C@H]2CS(=O)(=O)C[C@H]21,11.81%
Cc1ccoc1-c1nnc(CNCC2CCCN2c2cccnn2)o1 (centres undefined),22.5%
Cn1nc2c(cc1=O)CN(Cc1nc(-c3ccoc3)no1)CC2,13.77%
Cn1ncc2c1CCCC2NCc1cccnc1 (centres undefined),7.43%
CCN(CC1COc2ccccc2O1)C(=O)CCn1cncn1 (centres undefined),18.03%
CCOCC(O)CN1CCN(C(=O)CC(C)C)CC1 (centres undefined),2.614%
c1coc(-c2noc(CN3CCC(c4ccn[nH]4)CC3)n2)c1,8.333%
COc1cccc(S(=O)(=O)N2C[C@H](OC)[C@]3(CCCO3)C2)c1,20.89%
COCC1CCN(C(=O)c2cc(O)nc(CC(C)C)c2)CC1,8.815%
CC(C#N)CN(C)C(=O)c1cn(-c2ccc(Br)cc2)cn1 (centres undefined),13.65%
Cc1cn2c(n1)CCC(NC(=O)CCn1cncn1)C2 (centres undefined),4.724%
COCCN1CCN(Cc2nc3c(s2)CCCC3)[C@H]2CS(=O)(=O)C[C@H]21,15.86%
O=C(O)[C@@H]1CN(Cc2c[nH]c(CC3CCCC3)n2)C[C@H]1c1ccncc1,11.53%
NC(=O)CNC(=O)c1ccc(CNCc2ccc(F)cc2F)cc1,16.67%
COc1cc(F)ccc1NC(=O)NCCNC(=O)OC(C)(C)C,8.207%
O=C(c1cccnc1)N1CCCC(c2cc(C(F)F)n3ncnc3n2)C1 (centres undefined),14.73%
Cc1nccn1C1CCCN(C(=O)c2ccc3c(c2)CCC3)C1 (centres undefined),16.48%
CCOCCCNC(=O)CCCC(=O)n1nc(C)c2ccccc21,5.07%
CC(C(=O)Nc1ccc(N2CCCC2)nc1)n1cccn1 (centres undefined),16.67%
O=C(NCCN1CCOCC1)N(CCCO)C1CCCc2ccccc21 (centres undefined),5.836%
CCN1CCc2[nH]nc(C(=O)N3CCCC3C)c2C1 (centres undefined),7.778%
c1ccc(-c2nc3c(c(NCCc4c[nH]cn4)n2)CCNC3)cc1,14.09%
Cc1ccc(CNC(=O)c2cc(CN3CCC(O)CC3)on2)s1,5.694%
Cc1nn(C)c2c(NCc3ccccc3F)nc(C3CC3)nc12,24.41%
Cc1cc2c(=O)n(CC(=O)N3CCn4cccc4C3C(C)C)cnc2s1 (centres undefined),15.94%
CN1CC(=O)N(c2cccc(F)c2)CC12CCN(S(=O)(=O)C1CC1)C2 (centres undefined),20.63%
CCCN(C(=O)c1ccccn1)c1nc2c(s1)CCc1c-2cnn1C,16.1%
CCN1CCCC(CN2CCn3nc(CNC(=O)N(C)C)cc3C2)C1 (centres undefined),16.05%
O=C(c1cc(-c2cccnc2)[nH]n1)N1CCCC(c2cnccn2)C1 (centres undefined),3.416%
CC(N)C(=O)N1CCC(Oc2cccc(C(F)(F)F)c2)CC1 (centres undefined),16.72%
CNC(=O)c1cccnc1NCc1ccc(Cn2ccnc2)cc1,18.43%
CCS(=O)(=O)Nc1ccn(Cc2c(F)cccc2Cl)n1,9.348%

Once more, the final 5:

- CCN1CCCC(CN2CCn3nc(CNC(=O)N(C)C)cc3C2)C1 (centres undefined) | 16.05%
- O=C(c1cc(-c2cccnc2)[nH]n1)N1CCCC(c2cnccn2)C1 (centres undefined) | 3.416%
- CC(N)C(=O)N1CCC(Oc2cccc(C(F)(F)F)c2)CC1 (centres undefined) | 16.72%
- CNC(=O)c1cccnc1NCc1ccc(Cn2ccnc2)cc1 | 18.43%
- CCS(=O)(=O)Nc1ccn(Cc2c(F)cccc2Cl)n1 | 9.348%